These results are taken from PMC11401227, “The structure of DNA methyltransferase DNMT3C reveals an activity-tuning mechanism for DNA methylation” (The Journal of Biological Chemistry, 2024).

Protein sequences, listed by entry. Tags and fused reporters are not part of them. Lines headed by an entry give the natural chain unless they say otherwise; changes in a name come on top. Chains listed by the source or under a name are the forms on record and can include a tag or linker. Residues count along the entry.
mouse DNMT3C MTase domain (residues 456–740) (P0DOY1, residues 456-740): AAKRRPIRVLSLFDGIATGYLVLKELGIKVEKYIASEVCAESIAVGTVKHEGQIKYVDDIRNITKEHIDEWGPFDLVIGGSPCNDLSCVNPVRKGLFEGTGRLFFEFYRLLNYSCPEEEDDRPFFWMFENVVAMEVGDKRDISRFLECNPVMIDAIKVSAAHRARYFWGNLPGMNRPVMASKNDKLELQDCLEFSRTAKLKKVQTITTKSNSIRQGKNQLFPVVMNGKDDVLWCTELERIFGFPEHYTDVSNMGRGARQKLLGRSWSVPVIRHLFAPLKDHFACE
DNMT3C rahu mutant (E693G), MTase domain (P0DOY1, form named): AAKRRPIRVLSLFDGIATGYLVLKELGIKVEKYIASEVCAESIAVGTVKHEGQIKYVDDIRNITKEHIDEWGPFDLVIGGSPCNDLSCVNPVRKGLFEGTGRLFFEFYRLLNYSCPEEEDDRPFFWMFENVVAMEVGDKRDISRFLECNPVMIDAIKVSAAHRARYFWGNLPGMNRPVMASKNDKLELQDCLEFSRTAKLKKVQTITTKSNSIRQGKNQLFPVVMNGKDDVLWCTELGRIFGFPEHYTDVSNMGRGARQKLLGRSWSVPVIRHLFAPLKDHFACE
UniProt Q9UJW3, residues 178-386: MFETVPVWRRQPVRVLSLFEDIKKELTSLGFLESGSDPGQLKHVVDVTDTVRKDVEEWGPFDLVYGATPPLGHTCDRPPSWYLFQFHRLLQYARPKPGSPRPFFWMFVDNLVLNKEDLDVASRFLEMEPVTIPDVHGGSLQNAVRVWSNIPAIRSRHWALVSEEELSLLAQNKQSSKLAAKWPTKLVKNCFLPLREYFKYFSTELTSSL
UniProt Q9CWR8, residues 220-415: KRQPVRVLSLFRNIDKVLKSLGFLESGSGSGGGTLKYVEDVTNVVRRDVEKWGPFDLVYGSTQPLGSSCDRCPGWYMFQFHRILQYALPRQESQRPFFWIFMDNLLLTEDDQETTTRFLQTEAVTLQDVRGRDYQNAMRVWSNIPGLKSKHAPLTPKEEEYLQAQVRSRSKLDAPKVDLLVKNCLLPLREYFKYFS

Results are given in words; binding and its absence hold for the method and conditions named. Some binding calls cover weakened binding; strength is not graded here.

Assay [1] deals with mouse DNMT3C MTase domain (residues 456–740) (mouse) (UniProt P0DOY1). Put plainly: crystal structure; DNMT3C MTase domain-hDNMT3L C-terminal domain covalently bound to a 25-mer ZpG/CpG DNA, with SAH; 3.2 Å; crystals grown at 4 °C; both purified.
For assay [2], the target named is DNMT3C rahu mutant (E693G), MTase domain (mouse) (UniProt P0DOY1). Put plainly: SEC; Superdex 200 increase 10/300 GL; 500 μl of 0.4 mg/ml protein; 25 mM Tris-HCl pH 7.5, 5% glycerol, 250 mM NaCl, 5 mM DTT; protein identity confirmed by SDS-PAGE; both purified. On the technique in general: SEC sorts molecules by how far they enter the pores of the column.
Assay [3] deals with mouse DNMT3C MTase domain (residues 456–740) (mouse) (UniProt P0DOY1). Put plainly: co-purification (Ni-NTA, Heparin, SEC); His6-SUMO-DNMT3C and untagged DNMT3L co-expressed in E. coli; lysis in 50 mM Tris-HCl pH 8.0, 1 M NaCl, 10% glycerol, 18 mM imidazole; held on Ni-NTA by the tag of DNMT3C.

On to “human DNMT3L C-terminal domain (residues 178–386) (from UniProt Q9UJW3-1 178-386) (domain or fragment)”, for which, in assay [1], the binding entry is “binds”. As to “DNMT3C rahu mutant (E693G), MTase domain (from UniProt P0DOY1 456-740) (domain or fragment)”, in assay [2], the binding entry is reported as “no binding (tested: 0.4 mg/ml)”. For “mouse DNMT3L C-terminal domain (residues 220–415) (from UniProt Q9CWR8 220-415) (domain or fragment)”, in assay [3], the binding result was “binds”.
